The term MIC denotes the least concentration at which growth counts as inhibited.

This is an account of results in ChEMBL document CHEMBL5252554, “Stereodivergent Hydroxylation of Berkeleylactones by Penicillium turbatum” (J Nat Prod, 2023).

This experiment concerns Candida albicans. Kind of experiment: Antifungal activity against Candida albicans ATCC 10231 assessed as fungal growth inhibition measured after 48 hrs by bromocresol green staining based method. Type of experiment: functional.

Structures are written as SMILES. ≈ marks a conversion by molar mass, not a printed value.

`C[C@@H]1[C@H](O)[C@@H](C)/C=C/C=C/C=C/C=C/C=C/C=C/C=C/[C@H](O[C@@H]2O[C@H](C)[C@@H](O)[C@H](N)[C@@H]2O)C[C@@H]2O[C@](O)(C[C@@H](O)C[C@@H](O)[C@H](O)CC[C@@H](O)C[C@@H](O)CC(=O)O[C@H]1C)C[C@H](O)[C@H]2C(=O)O` [AMPHOTERICIN B]: the MIC was found to be 0.1 µM (≈ 0.0924 µg/mL).
